Experimental data taken from paper doi:10.1101/2024.08.31.610644.
These are yes or no findings as the source states them, for the method shown. Binding can be weak; no strength is given. Tags and fused reporters may be left off the sequences shown.

Chains of the proteins cited; added tags and fusions are not shown. Lines headed by an entry give the natural chain unless they say otherwise; changes in a name come on top.
UniProt Q94AI4: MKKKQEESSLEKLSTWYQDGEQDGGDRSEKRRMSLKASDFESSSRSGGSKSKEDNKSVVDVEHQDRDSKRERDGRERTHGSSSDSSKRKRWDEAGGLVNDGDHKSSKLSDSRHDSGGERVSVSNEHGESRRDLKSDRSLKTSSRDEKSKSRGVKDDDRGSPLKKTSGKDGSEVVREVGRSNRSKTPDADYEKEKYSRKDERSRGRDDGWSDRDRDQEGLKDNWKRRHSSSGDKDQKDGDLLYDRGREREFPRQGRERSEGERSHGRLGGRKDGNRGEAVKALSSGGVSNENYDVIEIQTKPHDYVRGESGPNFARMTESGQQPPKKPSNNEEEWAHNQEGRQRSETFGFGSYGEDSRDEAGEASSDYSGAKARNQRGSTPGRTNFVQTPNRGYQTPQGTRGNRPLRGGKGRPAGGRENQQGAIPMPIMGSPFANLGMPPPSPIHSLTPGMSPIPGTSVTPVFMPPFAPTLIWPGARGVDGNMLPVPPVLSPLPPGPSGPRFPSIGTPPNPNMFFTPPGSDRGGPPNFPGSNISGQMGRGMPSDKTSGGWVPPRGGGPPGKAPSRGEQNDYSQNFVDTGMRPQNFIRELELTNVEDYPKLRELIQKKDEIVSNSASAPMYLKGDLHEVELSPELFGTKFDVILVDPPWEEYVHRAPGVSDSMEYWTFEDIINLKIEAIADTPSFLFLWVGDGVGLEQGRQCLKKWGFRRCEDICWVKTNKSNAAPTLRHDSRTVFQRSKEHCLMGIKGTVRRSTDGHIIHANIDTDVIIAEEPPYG

Experiments:
Experiment in all cases: two-hybrid
[1] = molecular target: T1, 20S proteasome subunit PAG1, yeast two-hybrid fusion (Arabidopsis thaliana) (UniProt O23715)
T1 sequence: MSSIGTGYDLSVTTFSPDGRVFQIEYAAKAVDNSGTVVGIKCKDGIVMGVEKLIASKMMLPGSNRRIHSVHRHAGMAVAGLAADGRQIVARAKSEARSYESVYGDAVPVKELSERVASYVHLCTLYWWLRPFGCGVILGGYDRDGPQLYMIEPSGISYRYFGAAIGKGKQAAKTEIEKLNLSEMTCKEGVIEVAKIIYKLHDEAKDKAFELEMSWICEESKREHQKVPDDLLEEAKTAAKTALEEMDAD

[2] = molecular target: T2, SERRATE (SE), yeast two-hybrid fusion (Arabidopsis thaliana) (UniProt Q9ZVD0)
T2 sequence: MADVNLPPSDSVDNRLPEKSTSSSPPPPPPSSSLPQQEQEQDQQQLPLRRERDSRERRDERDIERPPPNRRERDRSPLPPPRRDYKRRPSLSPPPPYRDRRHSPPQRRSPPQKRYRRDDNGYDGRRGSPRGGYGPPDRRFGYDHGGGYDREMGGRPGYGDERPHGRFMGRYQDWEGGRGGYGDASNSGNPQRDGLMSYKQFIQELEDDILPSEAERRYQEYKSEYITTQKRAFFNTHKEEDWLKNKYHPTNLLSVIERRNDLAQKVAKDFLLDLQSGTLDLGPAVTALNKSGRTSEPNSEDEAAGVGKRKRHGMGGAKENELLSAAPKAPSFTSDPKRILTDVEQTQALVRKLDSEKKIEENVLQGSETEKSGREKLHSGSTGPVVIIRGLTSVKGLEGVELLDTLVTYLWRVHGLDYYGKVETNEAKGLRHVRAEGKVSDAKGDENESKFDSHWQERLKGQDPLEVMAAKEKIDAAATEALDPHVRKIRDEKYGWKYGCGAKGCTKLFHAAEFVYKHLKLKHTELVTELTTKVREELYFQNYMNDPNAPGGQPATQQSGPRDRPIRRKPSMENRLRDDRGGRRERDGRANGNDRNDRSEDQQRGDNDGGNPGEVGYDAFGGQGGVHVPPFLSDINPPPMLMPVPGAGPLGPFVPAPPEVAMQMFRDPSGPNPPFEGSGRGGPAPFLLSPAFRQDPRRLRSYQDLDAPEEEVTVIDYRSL

[3] = molecular target: T3, 20S proteasome subunit PBE2, yeast two-hybrid fusion (Arabidopsis thaliana) (UniProt Q9LIP2)
T3 sequence: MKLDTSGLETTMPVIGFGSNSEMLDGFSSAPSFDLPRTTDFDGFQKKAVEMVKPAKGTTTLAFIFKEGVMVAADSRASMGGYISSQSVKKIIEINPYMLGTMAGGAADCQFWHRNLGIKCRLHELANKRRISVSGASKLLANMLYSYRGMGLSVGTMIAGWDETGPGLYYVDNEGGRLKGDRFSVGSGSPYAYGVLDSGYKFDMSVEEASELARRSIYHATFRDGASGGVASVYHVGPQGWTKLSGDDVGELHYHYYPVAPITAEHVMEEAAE

[4] = molecular target: T4, 20S proteasome subunit PBE1, yeast two-hybrid fusion (Arabidopsis thaliana) (UniProt O23717)
T4 sequence: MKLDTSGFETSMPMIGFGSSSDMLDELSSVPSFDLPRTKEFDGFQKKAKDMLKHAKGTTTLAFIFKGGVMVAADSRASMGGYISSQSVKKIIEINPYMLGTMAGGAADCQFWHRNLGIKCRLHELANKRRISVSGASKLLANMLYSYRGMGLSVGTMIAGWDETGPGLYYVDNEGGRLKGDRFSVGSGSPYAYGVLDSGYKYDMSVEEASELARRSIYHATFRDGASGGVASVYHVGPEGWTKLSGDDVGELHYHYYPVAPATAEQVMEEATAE

[5] = molecular target: T5, C-terminal region (469 to 720 aa) of SE, yeast two-hybrid fusion (Arabidopsis thaliana) (UniProt Q9ZVD0)
T5 sequence: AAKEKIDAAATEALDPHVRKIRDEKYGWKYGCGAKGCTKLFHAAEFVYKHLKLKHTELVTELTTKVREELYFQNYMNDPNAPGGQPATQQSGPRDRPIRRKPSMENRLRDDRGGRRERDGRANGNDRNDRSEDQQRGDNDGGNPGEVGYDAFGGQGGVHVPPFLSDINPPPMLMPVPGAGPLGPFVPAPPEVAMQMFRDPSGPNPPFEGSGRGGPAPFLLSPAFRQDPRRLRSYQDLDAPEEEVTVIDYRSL

Substance | binding [1] | binding [2] | binding [3] | binding [4] | binding [5]
MTC subunit B (MTB), yeast two-hybrid fusion (from UniProt Q94AI4-2) | binds | binds | binds | binds | –
N-terminal IDR (1 to 634 aa) of MTB, yeast two-hybrid fusion (from UniProt Q94AI4) (domain or fragment) | – | – | – | – | binds
